Measurements published in PMC10352133.
No constants are given. Whether binding was seen depends on the method and setting.

Target: T1, isoform b of human synaptogyrin 1 (human), O43759
T1 chain: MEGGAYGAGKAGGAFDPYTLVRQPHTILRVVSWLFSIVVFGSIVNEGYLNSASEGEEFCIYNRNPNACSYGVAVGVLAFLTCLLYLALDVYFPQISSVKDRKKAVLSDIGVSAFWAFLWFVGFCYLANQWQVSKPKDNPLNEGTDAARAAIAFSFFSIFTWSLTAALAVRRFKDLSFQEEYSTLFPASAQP
Experiment: NMR transverse relaxation (1H spin-spin echo, T2 of amide protons); 0.1-0.3 mM synaptogyrin in 20 mM sodium phosphate, pH 8.0, 150 mM NaCl, 1 mM TCEP, 0.1% UDM (or 0.005% NG310 or 0.03% DDM), 40 °C; molecular weight of the protein/detergent assembly estimated from T2; both purified
Details: remark: other sources report otherwise

binding: no binding (tested: 0.1-0.3 mM)
B1: isoform b of human synaptogyrin 1, O43759-2 1-191 (protein)
chain: MEGGAYGAGKAGGAFDPYTLVRQPHTILRVVSWLFSIVVFGSIVNEGYLNSASEGEEFCIYNRNPNACSYGVAVGVLAFLTCLLYLALDVYFPQISSVKDRKKAVLSDIGVSAFWAFLWFVGFCYLANQWQVSKPKDNPLNEGTDAARAAIAFSFFSIFTWSLTAALAVRRFKDLSFQEEYSTLFPASAQP
